# From the supplement of paper PMC10032668
# Amino acid sequences for entries named in this document (tags omitted).
# AURKB, Q96GD4, UniProt Q96GD4, whole entry: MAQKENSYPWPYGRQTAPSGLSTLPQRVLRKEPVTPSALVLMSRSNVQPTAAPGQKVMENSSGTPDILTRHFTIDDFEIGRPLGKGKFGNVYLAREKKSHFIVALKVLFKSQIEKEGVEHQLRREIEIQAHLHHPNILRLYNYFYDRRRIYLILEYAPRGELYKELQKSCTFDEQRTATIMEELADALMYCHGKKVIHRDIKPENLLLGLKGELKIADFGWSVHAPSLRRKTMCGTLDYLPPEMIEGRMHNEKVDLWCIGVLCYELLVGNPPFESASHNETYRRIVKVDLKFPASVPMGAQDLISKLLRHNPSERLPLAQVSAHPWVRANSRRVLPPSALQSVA
# CKS1B, P61024, UniProt P61024, whole entry: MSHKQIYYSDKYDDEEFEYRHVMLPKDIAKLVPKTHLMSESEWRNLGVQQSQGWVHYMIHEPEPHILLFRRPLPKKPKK
# RHOA, P61586, UniProt P61586, whole entry: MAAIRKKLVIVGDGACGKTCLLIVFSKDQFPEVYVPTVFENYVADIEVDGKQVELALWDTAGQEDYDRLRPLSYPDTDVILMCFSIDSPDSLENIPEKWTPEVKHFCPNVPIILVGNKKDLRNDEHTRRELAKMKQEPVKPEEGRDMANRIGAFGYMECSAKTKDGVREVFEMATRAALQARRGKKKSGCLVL
# TUBB8, Q3ZCM7, UniProt Q3ZCM7, whole entry: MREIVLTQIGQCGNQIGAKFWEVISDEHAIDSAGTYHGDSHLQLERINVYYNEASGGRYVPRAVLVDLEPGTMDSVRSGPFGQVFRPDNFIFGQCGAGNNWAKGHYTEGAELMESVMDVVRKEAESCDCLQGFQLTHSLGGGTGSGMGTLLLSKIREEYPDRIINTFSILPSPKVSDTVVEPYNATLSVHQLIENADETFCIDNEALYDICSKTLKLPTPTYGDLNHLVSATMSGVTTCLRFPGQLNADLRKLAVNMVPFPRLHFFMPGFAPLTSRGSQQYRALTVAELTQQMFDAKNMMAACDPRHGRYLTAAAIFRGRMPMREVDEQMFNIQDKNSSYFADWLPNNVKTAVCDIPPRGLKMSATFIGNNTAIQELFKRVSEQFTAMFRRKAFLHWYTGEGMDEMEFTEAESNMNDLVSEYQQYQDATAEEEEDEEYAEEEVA
# EPB41L2, O43491, UniProt O43491, whole entry: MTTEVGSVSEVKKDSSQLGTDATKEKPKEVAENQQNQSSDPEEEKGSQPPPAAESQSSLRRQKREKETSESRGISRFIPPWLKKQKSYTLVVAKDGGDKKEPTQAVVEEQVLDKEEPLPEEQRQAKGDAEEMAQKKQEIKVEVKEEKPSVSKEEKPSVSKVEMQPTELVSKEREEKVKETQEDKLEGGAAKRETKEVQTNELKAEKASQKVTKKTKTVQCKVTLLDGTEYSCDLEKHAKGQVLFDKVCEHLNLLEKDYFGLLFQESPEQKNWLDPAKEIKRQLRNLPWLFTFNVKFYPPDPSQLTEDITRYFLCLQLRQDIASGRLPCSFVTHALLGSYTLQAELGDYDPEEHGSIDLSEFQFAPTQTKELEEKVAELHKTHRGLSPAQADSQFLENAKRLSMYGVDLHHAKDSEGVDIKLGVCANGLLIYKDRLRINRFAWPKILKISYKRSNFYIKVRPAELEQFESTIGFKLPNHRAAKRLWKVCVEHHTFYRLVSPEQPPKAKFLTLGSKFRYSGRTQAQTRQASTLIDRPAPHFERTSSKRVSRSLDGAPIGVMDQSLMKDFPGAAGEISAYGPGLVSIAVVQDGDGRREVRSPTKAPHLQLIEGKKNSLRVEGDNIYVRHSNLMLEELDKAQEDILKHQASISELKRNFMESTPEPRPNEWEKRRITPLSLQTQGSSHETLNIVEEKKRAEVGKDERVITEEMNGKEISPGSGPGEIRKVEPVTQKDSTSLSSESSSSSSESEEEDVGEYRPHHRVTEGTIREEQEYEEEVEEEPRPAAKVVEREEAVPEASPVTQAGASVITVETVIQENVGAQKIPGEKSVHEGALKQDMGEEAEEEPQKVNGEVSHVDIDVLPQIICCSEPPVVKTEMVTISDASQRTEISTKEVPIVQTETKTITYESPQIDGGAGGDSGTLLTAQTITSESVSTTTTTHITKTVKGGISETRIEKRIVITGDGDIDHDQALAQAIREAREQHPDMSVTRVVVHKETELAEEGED
# RANBP1, P43487, UniProt P43487, whole entry: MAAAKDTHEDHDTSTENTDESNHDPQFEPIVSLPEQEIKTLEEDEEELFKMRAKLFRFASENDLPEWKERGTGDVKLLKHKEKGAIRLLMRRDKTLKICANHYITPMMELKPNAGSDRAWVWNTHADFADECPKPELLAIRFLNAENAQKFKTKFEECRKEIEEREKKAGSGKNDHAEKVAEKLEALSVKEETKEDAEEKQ
# TRRAP, Q9Y4A5, UniProt Q9Y4A5, whole entry: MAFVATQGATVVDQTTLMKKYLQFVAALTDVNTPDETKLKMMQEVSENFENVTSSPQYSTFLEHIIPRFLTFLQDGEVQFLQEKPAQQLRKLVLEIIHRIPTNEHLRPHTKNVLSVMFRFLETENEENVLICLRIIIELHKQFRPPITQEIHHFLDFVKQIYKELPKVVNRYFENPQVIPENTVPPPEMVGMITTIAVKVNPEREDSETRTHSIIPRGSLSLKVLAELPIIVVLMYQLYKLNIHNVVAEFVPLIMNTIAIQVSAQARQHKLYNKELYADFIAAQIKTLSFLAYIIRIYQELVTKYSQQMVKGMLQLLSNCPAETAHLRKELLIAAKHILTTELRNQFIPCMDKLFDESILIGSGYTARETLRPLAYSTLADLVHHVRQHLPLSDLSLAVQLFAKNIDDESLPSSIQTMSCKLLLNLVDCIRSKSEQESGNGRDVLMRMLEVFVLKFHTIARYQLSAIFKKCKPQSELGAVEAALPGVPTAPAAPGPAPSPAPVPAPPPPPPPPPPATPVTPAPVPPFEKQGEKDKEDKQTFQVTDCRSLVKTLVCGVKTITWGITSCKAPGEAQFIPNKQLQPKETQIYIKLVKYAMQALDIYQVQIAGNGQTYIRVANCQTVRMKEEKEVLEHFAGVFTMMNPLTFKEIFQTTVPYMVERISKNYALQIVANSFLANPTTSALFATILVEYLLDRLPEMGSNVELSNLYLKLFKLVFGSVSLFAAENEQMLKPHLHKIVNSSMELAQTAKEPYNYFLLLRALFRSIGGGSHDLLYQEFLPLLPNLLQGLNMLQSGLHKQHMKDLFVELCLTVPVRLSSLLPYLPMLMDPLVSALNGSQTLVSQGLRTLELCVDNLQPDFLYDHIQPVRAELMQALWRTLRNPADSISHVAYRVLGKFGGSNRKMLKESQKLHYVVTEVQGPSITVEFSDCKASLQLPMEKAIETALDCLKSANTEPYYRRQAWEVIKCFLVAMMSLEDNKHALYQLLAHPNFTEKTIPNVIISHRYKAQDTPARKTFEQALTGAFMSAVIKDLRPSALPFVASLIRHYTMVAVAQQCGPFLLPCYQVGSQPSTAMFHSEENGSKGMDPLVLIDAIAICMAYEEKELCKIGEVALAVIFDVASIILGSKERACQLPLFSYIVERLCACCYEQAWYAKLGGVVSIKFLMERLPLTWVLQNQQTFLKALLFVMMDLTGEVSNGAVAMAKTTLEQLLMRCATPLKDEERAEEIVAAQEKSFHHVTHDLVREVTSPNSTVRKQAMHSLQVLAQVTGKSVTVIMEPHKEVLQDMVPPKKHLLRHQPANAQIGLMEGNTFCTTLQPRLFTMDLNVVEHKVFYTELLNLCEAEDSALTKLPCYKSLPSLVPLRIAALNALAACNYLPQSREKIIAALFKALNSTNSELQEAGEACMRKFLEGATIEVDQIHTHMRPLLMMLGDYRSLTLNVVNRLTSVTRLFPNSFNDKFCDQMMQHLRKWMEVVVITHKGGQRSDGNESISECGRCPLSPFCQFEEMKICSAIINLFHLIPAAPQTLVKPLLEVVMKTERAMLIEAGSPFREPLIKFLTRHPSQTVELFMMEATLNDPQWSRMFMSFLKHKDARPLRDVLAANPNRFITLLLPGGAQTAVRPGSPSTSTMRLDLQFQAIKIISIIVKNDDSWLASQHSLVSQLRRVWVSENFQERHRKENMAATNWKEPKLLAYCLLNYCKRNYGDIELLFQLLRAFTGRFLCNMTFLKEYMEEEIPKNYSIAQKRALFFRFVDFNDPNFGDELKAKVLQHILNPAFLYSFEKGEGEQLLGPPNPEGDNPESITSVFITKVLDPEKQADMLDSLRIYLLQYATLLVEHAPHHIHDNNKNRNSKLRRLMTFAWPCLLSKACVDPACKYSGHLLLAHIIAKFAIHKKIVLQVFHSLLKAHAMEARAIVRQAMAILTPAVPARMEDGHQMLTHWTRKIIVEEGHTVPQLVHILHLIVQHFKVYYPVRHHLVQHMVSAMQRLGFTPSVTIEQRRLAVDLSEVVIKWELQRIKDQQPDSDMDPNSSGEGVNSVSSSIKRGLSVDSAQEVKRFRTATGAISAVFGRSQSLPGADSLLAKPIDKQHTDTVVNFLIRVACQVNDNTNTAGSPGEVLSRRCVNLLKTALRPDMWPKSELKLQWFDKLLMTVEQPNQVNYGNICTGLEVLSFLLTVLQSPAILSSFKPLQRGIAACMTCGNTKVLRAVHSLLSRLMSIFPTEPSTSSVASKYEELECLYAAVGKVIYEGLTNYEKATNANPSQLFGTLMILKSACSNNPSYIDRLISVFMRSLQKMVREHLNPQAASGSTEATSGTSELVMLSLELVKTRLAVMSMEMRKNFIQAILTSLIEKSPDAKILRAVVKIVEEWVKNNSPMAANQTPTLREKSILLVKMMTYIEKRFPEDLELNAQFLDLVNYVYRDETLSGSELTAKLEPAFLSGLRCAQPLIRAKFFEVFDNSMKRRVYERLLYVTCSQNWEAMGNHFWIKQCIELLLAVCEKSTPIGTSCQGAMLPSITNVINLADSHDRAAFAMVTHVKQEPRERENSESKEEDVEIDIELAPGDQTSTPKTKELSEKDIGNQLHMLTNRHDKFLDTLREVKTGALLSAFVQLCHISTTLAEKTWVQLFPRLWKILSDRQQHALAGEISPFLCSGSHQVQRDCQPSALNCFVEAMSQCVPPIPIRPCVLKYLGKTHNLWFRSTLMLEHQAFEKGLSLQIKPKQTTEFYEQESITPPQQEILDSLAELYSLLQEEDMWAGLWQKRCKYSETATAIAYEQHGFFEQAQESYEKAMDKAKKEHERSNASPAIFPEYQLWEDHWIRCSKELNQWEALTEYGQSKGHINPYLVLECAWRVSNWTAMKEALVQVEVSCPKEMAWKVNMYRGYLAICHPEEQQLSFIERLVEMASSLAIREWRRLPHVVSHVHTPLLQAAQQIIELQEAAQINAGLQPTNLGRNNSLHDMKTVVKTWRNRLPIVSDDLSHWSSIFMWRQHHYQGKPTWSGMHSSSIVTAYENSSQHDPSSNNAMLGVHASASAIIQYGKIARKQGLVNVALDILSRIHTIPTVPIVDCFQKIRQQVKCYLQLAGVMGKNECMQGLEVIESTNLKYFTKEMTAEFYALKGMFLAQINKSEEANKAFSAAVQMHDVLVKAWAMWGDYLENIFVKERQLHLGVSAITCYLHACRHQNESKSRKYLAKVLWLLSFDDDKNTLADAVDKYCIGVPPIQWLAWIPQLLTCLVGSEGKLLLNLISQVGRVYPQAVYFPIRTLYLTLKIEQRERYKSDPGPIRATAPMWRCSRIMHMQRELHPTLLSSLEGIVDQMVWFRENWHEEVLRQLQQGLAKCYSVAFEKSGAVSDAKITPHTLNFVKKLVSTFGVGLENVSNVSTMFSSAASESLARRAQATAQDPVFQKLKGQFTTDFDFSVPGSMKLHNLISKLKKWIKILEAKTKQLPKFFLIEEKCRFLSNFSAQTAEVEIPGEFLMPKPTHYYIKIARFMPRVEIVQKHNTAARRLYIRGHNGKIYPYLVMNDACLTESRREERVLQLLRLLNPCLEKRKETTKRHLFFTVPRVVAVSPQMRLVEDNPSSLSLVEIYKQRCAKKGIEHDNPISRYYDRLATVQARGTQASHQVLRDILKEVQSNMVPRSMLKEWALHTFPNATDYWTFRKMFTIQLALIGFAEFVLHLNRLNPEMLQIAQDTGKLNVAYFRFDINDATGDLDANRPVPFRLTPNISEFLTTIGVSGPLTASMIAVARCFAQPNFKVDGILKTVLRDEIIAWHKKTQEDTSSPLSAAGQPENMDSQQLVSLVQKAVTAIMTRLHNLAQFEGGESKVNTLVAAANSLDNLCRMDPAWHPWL
# ± gives the standard deviation of the averaged measurements. Some of the results follow. The list holds hits alone, and they repeat only in part.
# Key:
# Experiment in all cases: PRISMA enrichment of interactor (LFQ) in peptide spot vs all other peptide spots (log2 fold change); higher = stronger / more specific binding of the interactor to the peptide
# ALDH4A1, P30038 = target: ALDH4A1, P30038
# Description: (§1)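 PRISMA: 15-aa overlapping tiles (offset 8 aa) of 60 microproteins, plus SOS1/GLUT1 control peptides, were spot-synthesized on cellulose membranes in triplicate. Membranes were incubated with benzonase-treated HEK293T lysate, and bound proteins were identified by LC-MS/MS with LFQ. Enrichment is the log2 fold change of each protein in one spot versus all other spots. Only interactors passing the significance cutoff are listed.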
# AURKB, Q96GD4 = target: AURKB, Q96GD4
# Description: as §1
# CRABP2, P29373 = target: CRABP2, P29373
# Description: as §1
# CTTN, Q14247 = target: CTTN, Q14247
# Description: as §1
# DDX28, Q9NUL7 = target: DDX28, Q9NUL7
# Description: as §1
# EIF2D, P41214 = target: EIF2D, P41214
# Description: as §1
# ESYT2, A0FGR8 = target: ESYT2, A0FGR8
# Description: as §1
# GTF3C5, Q9Y5Q8 = target: GTF3C5, Q9Y5Q8
# Description: as §1
# HEATR3, Q7Z4Q2 = target: HEATR3, Q7Z4Q2
# Description: as §1
# HELLS, Q9NRZ9 = target: HELLS, Q9NRZ9
# Description: as §1
# JUP, P14923 = target: JUP, P14923
# Description: as §1
# KLF16, Q9BXK1 = target: KLF16, Q9BXK1
# Description: as §1
# LSG1, Q9H089 = target: LSG1, Q9H089
# Description: as §1
# MMTAG2, Q9BU76 = target: MMTAG2, Q9BU76
# Description: as §1
# MRPL14, Q6P1L8 = target: MRPL14, Q6P1L8
# Description: as §1
# NOC3L, Q8WTT2 = target: NOC3L, Q8WTT2
# Description: as §1
# OGFR, Q9NZT2 = target: OGFR, Q9NZT2
# Description: as §1
# PINX1, Q96BK5 = target: PINX1, Q96BK5
# Description: as §1
# PPP1R12A, O14974 = target: PPP1R12A, O14974
# Description: as §1
# PPP1R2, P41236 = target: PPP1R2, P41236
# Description: as §1
# RBM34, P42696 = target: RBM34, P42696
# Description: as §1
# SRRM1, Q8IYB3 = target: SRRM1, Q8IYB3
# Description: as §1
# TIPIN, Q9BVW5 = target: TIPIN, Q9BVW5
# Description: as §1
# TRIM26, Q12899 = target: TRIM26, Q12899
# Description: as §1
# UTP3, Q9NQZ2 = target: UTP3, Q9NQZ2
# Description: as §1
# YTHDC1, Q96MU7 = target: YTHDC1, Q96MU7
# Description: as §1
# ALDH9A1, P49189 = target: ALDH9A1, P49189
# Description: as §1
# CKS1B, P61024 = target: CKS1B, P61024
# Description: as §1
# MSI1, O43347 = target: MSI1, O43347
# Description: as §1
# PRRC2C, Q9Y520 = target: PRRC2C, Q9Y520
# Description: as §1
# PTGES3, Q15185 = target: PTGES3, Q15185
# Description: as §1
# RBM38, Q9H0Z9 = target: RBM38, Q9H0Z9
# Description: as §1
# RHOA, P61586 = target: RHOA, P61586
# Description: as §1
# TUBB8, Q3ZCM7 = target: TUBB8, Q3ZCM7
# Description: as §1
# ZNF317, Q96PQ6 = target: ZNF317, Q96PQ6
# Description: as §1
# ANP32A, P39687 = target: ANP32A, P39687
# Description: as §1
# ANP32B, Q92688 = target: ANP32B, Q92688
# Description: as §1
# C1QBP, Q07021 = target: C1QBP, Q07021
# Description: as §1
# CXorf56, Q9H5V9 = target: CXorf56, Q9H5V9
# Description: as §1
# EPB41L2, O43491 = target: EPB41L2, O43491
# Description: as §1
# FAM50A, Q14320 = target: FAM50A, Q14320
# Description: as §1
# MRPL27, Q9P0M9 = target: MRPL27, Q9P0M9
# Description: as §1
# NAP1L1, P55209 = target: NAP1L1, P55209
# Description: as §1
# PRIM1, P49642 = target: PRIM1, P49642
# Description: as §1
# RANBP1, P43487 = target: RANBP1, P43487
# Description: as §1
# RPS29, P62273 = target: RPS29, P62273
# Description: as §1
# TRRAP, Q9Y4A5 = target: TRRAP, Q9Y4A5
# Description: as §1
binder,measurement,setting,value
LAEQRRPGMRLQNSG [ABR],PRISMA enrichment of interactor (log2),"ALDH4A1, P30038",4.75
same,PRISMA enrichment of interactor (log2),"AURKB, Q96GD4",6.1
same,PRISMA enrichment of interactor (log2),"CRABP2, P29373",3.74
same,PRISMA enrichment of interactor (log2),"CTTN, Q14247",4.52
same,PRISMA enrichment of interactor (log2),"DDX28, Q9NUL7",5.52
same,PRISMA enrichment of interactor (log2),"EIF2D, P41214",6.84
same,PRISMA enrichment of interactor (log2),"ESYT2, A0FGR8",4.13
same,PRISMA enrichment of interactor (log2),"GTF3C5, Q9Y5Q8",5.59
same,PRISMA enrichment of interactor (log2),"HEATR3, Q7Z4Q2",5.43
same,PRISMA enrichment of interactor (log2),"HELLS, Q9NRZ9",5.23
same,PRISMA enrichment of interactor (log2),"JUP, P14923",5.6
same,PRISMA enrichment of interactor (log2),"KLF16, Q9BXK1",4.59
same,PRISMA enrichment of interactor (log2),"LSG1, Q9H089",9.72
same,PRISMA enrichment of interactor (log2),"MMTAG2, Q9BU76",6.29
same,PRISMA enrichment of interactor (log2),"MRPL14, Q6P1L8",6.66
same,PRISMA enrichment of interactor (log2),"NOC3L, Q8WTT2",5.41
same,PRISMA enrichment of interactor (log2),"OGFR, Q9NZT2",6.81
same,PRISMA enrichment of interactor (log2),"PINX1, Q96BK5",4.91
same,PRISMA enrichment of interactor (log2),"PPP1R12A, O14974",5.36
same,PRISMA enrichment of interactor (log2),"PPP1R2, P41236",5.79
same,PRISMA enrichment of interactor (log2),"RBM34, P42696",5.39
same,PRISMA enrichment of interactor (log2),"SRRM1, Q8IYB3",4.46
same,PRISMA enrichment of interactor (log2),"TIPIN, Q9BVW5",4.84
same,PRISMA enrichment of interactor (log2),"TRIM26, Q12899",10.1
same,PRISMA enrichment of interactor (log2),"UTP3, Q9NQZ2",7.39
same,PRISMA enrichment of interactor (log2),"YTHDC1, Q96MU7",5.17
IESRSYMFSPSRAFR [RP3-332B22.1],PRISMA enrichment of interactor (log2),"ALDH9A1, P49189",6.98
same,PRISMA enrichment of interactor (log2),"CKS1B, P61024",4.23
same,PRISMA enrichment of interactor (log2),"MSI1, O43347",6.95
same,PRISMA enrichment of interactor (log2),"PRRC2C, Q9Y520",4.64
same,PRISMA enrichment of interactor (log2),"PTGES3, Q15185",4.98
same,PRISMA enrichment of interactor (log2),"RBM38, Q9H0Z9",6.63
same,PRISMA enrichment of interactor (log2),"RHOA, P61586",4.53
same,PRISMA enrichment of interactor (log2),"TUBB8, Q3ZCM7",4.24
same,PRISMA enrichment of interactor (log2),"ZNF317, Q96PQ6",4.03
KPPPRRRARGPGGGP [RP11-140K17.3_2],PRISMA enrichment of interactor (log2),"ALDH9A1, P49189",6.62
same,PRISMA enrichment of interactor (log2),"ANP32A, P39687",6.36
same,PRISMA enrichment of interactor (log2),"ANP32B, Q92688",6.27
same,PRISMA enrichment of interactor (log2),"C1QBP, Q07021",6.51
same,PRISMA enrichment of interactor (log2),"CXorf56, Q9H5V9",5.47
same,PRISMA enrichment of interactor (log2),"EPB41L2, O43491",4.51
same,PRISMA enrichment of interactor (log2),"FAM50A, Q14320",4.89
same,PRISMA enrichment of interactor (log2),"MRPL27, Q9P0M9",6.84
same,PRISMA enrichment of interactor (log2),"NAP1L1, P55209",5.95 ± 0.13
same,PRISMA enrichment of interactor (log2),"PRIM1, P49642",6.17
same,PRISMA enrichment of interactor (log2),"RANBP1, P43487",5.39
same,PRISMA enrichment of interactor (log2),"RPS29, P62273",4.82
same,PRISMA enrichment of interactor (log2),"TRRAP, Q9Y4A5",5.13

# Three neighbouring records from above, quoted:
binder,measurement,setting,value
LAEQRRPGMRLQNSG [ABR],PRISMA enrichment of interactor (log2),"LSG1, Q9H089",9.72
same,PRISMA enrichment of interactor (log2),"MMTAG2, Q9BU76",6.29
same,PRISMA enrichment of interactor (log2),"MRPL14, Q6P1L8",6.66
